Test results published in paper PMC12440932.
Results are given in words; binding and its absence hold for the method and conditions named. Some results given as binding are weak or reduced against the parent protein; the word gives no strength.

Biological target: dihydrolipoamide S-acetyltransferase (DLAT) (mouse (endogenous in colonic mucosa of C57BL/6 mice)) (UniProt Q8BMF4)
Assay: native gel or EMSA; non-denaturing gel electrophoresis of colonic mucosa protein, immunoblot for DLAT; mice: control, DSS (2.5%, 7 days), DSS + TTM, DSS + PA; oligomerization reduced by TTM and by PA

binding: binds
B1: dihydrolipoamide S-acetyltransferase (DLAT) (protein, UniProt Q8BMF4 86-642)
chain: SLPPHQKVPLPSLSPTMQAGTIARWEKKEGEKISEGDLIAEVETDKATVGFESLEECYMAKILVPEGTRDVPVGSIICITVEKPQDIEAFKNYTLDLAAAAAPQAAPAAAPAPAAAPAAPSASAPGSSYPTHMQIVLPALSPTMTMGTVQRWEKKVGEKLSEGDLLAEIETDKATIGFEVQEEGYLAKILVPEGTRDVPLGAPLCIIVEKQEDIAAFADYRPTEVTSLKPQAAPPAPPPVAAVPPTPQPVAPTPSAAPAGPKGRVFVSPLAKKLAAEKGIDLTQVKGTGPEGRIIKKDIDSFVPSKAAPAAAAAMAPPGPRVAPAPAGVFTDIPISNIRRVIAQRLMQSKQTIPHYYLSVDVNMGEVLLVRKELNKMLEGKGKISVNDFIIKASALACLKVPEANSSWMDTVIRQNHVVDVSVAVSTPAGLITPIVFNAHIKGLETIASDVVSLASKAREGKLQPHEFQGGTFTISNLGMFGIKNFSAIINPPQACILAIGASEDKLIPADNEKGFDVASVMSVTLSCDHRVVDGAVGAQWLAEFKKYLEKPITMLL
modifications: lipoylated (sites not given)
